Results are given in words; binding and its absence hold for the method and conditions named. A result given as binding can be weak or reduced; the word gives no strength.
Molecular target: monkey PD-L1 protein (hybridoma screening) (monkey)
Experiment: ELISA, hybridoma screening

binding: binds
B1: 36C06-D8 (antibody, V domains shown)
VH: QVQLQQSGAELVKPGASVKLSCKASGYAFTGYTIHWVKQRSGLGLEWLGWFYPGSGTLKYNEKFKDKATLTADKSSSTVYLELSRLTSEDSAVYFCARHGTGTLMAMDYWGQGTSVTVSS
VL: DVVVTQTPLSLPVSFGDQVSISCRSSQSLANSYGNTYLSWYLHKPGQSPQLLIYGISNRFSGVPDRFSGSGSGTDFTLKISTIKPEDLGMYYCLQGTHQPPTFGGGTKLEIK
notes: also called hybridoma 36C06/D8; mouse monoclonal antibody against human PD-L1

— US20220089741A1 (HUABO BIOPHARM SHANGHAI, published 2022)
